The other results are listed elsewhere or left out.

Protein sequences, listed by entry. Tags and fused reporters are not part of them. Lines headed by an entry give the natural chain unless they say otherwise; changes in a name come on top.
UniProt O00623: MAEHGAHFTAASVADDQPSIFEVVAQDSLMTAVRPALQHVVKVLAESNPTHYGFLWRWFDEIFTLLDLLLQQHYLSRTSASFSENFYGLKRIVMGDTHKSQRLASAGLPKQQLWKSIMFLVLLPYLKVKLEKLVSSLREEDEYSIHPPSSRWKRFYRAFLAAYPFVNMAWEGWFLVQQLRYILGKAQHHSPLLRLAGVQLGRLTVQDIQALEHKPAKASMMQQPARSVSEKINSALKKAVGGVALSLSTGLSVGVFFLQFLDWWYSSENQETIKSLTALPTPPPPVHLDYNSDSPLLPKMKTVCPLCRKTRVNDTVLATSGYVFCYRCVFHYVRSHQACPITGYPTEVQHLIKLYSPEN
UniProt Q9NVE7: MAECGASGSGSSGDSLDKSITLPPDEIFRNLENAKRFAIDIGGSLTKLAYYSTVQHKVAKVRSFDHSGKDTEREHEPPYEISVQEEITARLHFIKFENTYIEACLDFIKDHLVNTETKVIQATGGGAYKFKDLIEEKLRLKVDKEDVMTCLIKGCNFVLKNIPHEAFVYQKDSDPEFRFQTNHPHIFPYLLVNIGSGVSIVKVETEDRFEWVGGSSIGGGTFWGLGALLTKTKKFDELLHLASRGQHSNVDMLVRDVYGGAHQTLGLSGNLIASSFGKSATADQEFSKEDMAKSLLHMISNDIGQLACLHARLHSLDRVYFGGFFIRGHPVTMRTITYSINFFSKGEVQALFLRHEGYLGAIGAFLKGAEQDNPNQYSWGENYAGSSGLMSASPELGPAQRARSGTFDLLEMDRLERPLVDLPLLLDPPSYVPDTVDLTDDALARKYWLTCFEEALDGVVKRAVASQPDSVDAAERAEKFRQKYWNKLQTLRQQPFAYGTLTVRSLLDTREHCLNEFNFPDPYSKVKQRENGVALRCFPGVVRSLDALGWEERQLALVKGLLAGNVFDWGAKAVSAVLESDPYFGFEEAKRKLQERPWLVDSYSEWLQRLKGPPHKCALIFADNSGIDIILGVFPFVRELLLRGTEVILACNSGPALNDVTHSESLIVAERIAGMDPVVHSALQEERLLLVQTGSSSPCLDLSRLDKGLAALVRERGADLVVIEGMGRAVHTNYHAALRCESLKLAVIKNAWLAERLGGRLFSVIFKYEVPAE
UniProt Q5T2R2: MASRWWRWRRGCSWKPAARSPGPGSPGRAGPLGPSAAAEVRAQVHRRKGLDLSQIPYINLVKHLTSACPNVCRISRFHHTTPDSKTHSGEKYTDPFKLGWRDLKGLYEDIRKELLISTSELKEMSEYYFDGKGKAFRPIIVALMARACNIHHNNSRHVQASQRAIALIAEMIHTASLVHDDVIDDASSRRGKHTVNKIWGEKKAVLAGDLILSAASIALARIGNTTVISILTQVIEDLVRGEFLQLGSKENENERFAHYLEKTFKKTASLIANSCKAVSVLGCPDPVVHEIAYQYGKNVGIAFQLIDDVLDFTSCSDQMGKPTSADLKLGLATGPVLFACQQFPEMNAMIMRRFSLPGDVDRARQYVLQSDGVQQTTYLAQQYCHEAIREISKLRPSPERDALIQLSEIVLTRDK
UniProt O00151: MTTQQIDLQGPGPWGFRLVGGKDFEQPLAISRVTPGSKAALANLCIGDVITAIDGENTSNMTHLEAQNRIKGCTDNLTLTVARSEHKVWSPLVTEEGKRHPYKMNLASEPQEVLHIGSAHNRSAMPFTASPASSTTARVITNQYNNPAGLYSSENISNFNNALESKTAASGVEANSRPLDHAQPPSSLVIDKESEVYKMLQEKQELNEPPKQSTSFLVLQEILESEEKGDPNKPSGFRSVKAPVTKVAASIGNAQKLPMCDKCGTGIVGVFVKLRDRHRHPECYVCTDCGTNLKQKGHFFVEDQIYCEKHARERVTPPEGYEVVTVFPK
UniProt P50479: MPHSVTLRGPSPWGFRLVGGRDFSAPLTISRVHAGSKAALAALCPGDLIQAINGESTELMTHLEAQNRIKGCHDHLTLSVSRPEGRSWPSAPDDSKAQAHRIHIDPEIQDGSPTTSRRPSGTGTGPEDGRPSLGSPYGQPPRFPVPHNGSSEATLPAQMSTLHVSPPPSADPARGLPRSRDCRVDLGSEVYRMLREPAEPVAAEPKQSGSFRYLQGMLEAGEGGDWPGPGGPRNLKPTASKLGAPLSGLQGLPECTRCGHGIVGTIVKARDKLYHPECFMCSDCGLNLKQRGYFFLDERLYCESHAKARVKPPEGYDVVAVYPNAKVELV
UniProt Q13177, whole entry, looked up: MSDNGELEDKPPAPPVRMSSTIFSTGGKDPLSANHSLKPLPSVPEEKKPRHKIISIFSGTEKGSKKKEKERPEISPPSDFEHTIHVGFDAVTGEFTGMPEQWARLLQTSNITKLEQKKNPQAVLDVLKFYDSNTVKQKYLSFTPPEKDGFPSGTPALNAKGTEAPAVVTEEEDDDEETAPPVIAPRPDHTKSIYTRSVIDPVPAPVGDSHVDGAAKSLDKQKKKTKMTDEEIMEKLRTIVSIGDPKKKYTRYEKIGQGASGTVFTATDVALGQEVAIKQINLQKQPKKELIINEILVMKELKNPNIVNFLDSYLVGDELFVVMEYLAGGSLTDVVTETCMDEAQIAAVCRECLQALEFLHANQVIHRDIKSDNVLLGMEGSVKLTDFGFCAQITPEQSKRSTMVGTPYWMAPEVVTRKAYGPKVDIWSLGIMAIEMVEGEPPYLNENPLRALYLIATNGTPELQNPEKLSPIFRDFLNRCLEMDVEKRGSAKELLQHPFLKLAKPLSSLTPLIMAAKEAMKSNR
UniProt Q96GD0: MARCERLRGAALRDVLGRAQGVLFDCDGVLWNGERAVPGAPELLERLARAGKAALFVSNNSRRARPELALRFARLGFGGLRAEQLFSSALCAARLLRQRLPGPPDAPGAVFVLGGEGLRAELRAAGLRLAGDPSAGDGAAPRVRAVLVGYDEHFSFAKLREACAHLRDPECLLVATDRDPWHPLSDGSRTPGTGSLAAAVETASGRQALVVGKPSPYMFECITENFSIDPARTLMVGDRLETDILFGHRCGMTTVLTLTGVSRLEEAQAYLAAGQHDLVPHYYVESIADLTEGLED
UniProt P56645: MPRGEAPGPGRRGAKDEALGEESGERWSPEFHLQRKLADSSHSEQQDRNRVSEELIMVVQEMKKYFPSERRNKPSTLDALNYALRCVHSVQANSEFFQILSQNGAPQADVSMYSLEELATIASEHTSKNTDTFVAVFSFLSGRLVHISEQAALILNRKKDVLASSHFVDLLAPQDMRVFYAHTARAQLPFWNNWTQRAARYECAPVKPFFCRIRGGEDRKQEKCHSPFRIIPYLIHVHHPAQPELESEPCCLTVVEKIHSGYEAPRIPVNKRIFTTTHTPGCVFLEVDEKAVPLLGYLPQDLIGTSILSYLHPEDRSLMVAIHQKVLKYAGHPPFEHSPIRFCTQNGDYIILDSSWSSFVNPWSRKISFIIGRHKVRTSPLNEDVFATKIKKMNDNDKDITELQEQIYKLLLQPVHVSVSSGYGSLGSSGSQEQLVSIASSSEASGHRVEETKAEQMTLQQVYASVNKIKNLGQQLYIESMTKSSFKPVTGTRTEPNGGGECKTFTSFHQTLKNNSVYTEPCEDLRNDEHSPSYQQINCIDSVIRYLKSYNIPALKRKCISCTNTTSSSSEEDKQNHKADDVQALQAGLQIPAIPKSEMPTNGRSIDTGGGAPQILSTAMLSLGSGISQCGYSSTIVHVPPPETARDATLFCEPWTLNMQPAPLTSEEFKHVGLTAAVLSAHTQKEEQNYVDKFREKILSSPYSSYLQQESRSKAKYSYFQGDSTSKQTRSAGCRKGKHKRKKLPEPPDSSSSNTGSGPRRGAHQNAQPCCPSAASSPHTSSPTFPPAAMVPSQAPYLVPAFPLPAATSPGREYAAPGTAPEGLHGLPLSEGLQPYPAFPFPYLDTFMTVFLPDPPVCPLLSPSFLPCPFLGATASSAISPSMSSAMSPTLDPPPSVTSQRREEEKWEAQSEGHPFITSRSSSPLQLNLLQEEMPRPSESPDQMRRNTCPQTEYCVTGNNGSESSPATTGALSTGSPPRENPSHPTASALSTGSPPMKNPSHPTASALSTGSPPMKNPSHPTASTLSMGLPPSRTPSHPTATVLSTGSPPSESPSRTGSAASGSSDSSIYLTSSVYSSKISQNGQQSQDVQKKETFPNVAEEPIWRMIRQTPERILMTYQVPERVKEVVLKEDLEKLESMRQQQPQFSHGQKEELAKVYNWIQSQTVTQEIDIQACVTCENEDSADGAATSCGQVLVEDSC
UniProt Q99497, whole entry, looked up: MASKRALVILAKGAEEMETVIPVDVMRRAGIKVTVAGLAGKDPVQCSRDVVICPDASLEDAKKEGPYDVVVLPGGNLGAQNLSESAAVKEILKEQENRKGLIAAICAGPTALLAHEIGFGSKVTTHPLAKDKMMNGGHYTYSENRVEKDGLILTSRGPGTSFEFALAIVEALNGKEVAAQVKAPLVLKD
UniProt Q9NUG6, whole entry, looked up: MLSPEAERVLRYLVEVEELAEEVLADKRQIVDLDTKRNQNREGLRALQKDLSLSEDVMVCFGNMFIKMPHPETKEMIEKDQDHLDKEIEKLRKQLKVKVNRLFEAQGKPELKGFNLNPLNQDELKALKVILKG
UniProt P12955: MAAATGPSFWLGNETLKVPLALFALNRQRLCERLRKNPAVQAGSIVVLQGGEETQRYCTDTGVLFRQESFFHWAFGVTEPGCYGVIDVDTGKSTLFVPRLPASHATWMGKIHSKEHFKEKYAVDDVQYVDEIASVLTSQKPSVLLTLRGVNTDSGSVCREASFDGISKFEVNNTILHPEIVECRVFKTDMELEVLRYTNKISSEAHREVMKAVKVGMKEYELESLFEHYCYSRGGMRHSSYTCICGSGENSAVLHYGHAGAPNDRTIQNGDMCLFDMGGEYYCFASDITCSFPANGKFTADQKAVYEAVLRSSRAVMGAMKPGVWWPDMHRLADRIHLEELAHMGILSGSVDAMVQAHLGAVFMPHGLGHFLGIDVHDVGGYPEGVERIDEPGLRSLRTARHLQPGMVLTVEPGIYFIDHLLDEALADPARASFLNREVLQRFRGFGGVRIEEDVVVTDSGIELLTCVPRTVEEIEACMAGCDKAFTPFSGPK
UniProt Q9BUL8: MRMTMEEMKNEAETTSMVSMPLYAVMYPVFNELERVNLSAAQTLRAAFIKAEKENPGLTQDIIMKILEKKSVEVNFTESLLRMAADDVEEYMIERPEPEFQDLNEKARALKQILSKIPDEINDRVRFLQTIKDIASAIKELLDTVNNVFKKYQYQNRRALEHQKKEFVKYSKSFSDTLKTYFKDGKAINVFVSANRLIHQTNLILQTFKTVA
UniProt P30101, whole entry, looked up: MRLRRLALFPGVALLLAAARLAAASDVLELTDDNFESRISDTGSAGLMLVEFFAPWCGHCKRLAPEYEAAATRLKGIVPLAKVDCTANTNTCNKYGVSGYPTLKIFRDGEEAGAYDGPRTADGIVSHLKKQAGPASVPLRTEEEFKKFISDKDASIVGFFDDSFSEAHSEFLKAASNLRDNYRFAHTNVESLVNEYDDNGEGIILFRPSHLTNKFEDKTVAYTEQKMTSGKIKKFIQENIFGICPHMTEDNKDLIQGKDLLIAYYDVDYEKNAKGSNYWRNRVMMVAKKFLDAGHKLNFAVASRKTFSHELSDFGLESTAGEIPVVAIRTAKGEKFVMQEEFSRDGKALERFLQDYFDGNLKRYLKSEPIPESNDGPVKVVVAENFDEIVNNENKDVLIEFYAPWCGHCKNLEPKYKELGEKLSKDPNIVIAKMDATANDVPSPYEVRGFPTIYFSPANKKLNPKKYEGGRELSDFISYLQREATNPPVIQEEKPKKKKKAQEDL
UniProt P11177, whole entry, looked up: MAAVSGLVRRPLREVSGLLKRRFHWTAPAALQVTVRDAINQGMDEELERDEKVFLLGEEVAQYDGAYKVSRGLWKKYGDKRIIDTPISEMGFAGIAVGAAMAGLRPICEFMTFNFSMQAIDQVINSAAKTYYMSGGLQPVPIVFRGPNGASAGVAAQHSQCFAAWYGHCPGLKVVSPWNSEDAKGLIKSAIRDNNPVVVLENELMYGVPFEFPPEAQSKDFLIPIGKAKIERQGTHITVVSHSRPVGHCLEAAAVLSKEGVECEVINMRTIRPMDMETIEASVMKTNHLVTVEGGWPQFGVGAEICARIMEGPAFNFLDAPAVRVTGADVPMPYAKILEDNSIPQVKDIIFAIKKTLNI
UniProt Q13371: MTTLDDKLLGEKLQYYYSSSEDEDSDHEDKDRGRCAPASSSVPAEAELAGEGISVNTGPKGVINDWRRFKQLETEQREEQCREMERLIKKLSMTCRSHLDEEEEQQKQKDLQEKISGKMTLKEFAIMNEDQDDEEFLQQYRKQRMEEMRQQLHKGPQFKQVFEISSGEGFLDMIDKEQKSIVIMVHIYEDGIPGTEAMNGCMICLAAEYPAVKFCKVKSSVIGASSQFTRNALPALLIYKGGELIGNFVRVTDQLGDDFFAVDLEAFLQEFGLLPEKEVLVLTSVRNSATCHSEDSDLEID

The source of these data is the supplement of paper PMC10849652.

Compound in one assay: CS(=O)(=O)c1ccc(-c2cnc(N)c(C(=O)Nc3ccccc3)n2)cc1
In words: log2 fold change, soluble protein after heating vs DMSO (PISA); higher = thermal stabilisation; K562 cells, 10 uM, 30 min; active = over 0.2 and 3.5 SD of the protein, either way, in both replicates (recomputed). The essentials:
(§1)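 Soluble protein was defined as the supernatant after 21,000xg for 90 min. It came from K562 cells at 2×10^6 cells/mL given 10 μM compound for 30 min, heated in aliquots for 3 min across 48°C-58°C, pooled, and extracted in PBS with 0.5% NP-40 at 4°C, and was quantified by TMTpro 16plex LC-MS/MS with equalised channel sums. Thermal stability against control samples, from duplicates, is reported as log2 fold change.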
For PEX12 (UniProt O00623), the log2 fold change was inactive: 0.095.
Same read-out and setting: the value for PDHX (UniProt O00330) was inactive: 0.032; that for PANK4 (UniProt Q9NVE7) was inactive: 0.024; that for PDSS1 (UniProt Q5T2R2) was inactive: 0.073.
On the same count and under the same terms, the value for PDLIM1 (UniProt O00151) was inactive: -0.002.
Same read-out and setting: with PDLIM4 (UniProt P50479) the figure was inactive: -0.013.
On to PAK2 (UniProt Q13177), for which the log2 fold change is inactive: 0.027.
With PACSIN2 (UniProt Q9UNF0), the log2 fold change was inactive: 0.029.
Take PDXDC1 (UniProt Q6P996): the log2 fold change is inactive: 0.089.
With PASK (UniProt Q96RG2), the log2 fold change is inactive: 0.037.
On the same count and under the same terms, the value for PARD6B (UniProt Q9BYG5) was inactive: 0.104; that for PEBP1 (UniProt P30086) was inactive: 0.004.
The same measure, in the same setting: with PCYOX1 (UniProt Q9UHG3) the figure was inactive: -0.031; with PDXP (UniProt Q96GD0), inactive: -0.01.
The same measure, in the same setting: the value for PER3 isoform 2 (UniProt P56645) was inactive: -0.031; that for PEX1 (UniProt O43933) was inactive: 0.042.
For PARK7 (UniProt Q99497), the log2 fold change is inactive: -0.042.
Still for that read-out and setting: with PAK1IP1 (UniProt Q9NWT1) the figure was inactive: -0.067; with PES1 (UniProt O00541), inactive: -0.066; with PDRG1 (UniProt Q9NUG6), inactive: -0.022.
For PDXK (UniProt O00764), the log2 fold change was inactive: 0.03.
Still for that read-out and setting: with PABPC4 isoform 3 (UniProt Q13310) the figure was inactive: -0.058; with PCMT1 isoform 2 (UniProt P22061), inactive: 0.024.
On the same count and under the same terms, the value for PEPD (UniProt P12955) was inactive: 0; that for PDCD10 (UniProt Q9BUL8) was inactive: 0.047; that for PAPOLA (UniProt P51003) was inactive: 0.006.
As for PARVB (UniProt Q9HBI1), the log2 fold change is inactive: 0.06.
The same measure, in the same setting: with PANX1 (UniProt Q96RD7) the figure was inactive: -0.014; with PAFAH1B1 (UniProt P43034), inactive: 0.025; with PDIA3 (UniProt P30101), inactive: -0.005.
Same read-out and setting: the value for PDHB (UniProt P11177) was inactive: 0.057.
Take PAIP1 (UniProt Q9H074): the log2 fold change was inactive: -0.004.
Still for that read-out and setting: with PDCL (UniProt Q13371) the figure was inactive: 0.061.

Compound in a further assay: C[C@@H](Oc1cc(-c2cnn(C3CCNCC3)c2)cnc1N)c1c(Cl)ccc(F)c1Cl [crizotinib]
Described as above. An outline of the steps:
as §1
For the target PEX12 (UniProt O00623), the log2 fold change is inactive: -0.024.
Same read-out and setting: the value for PDHX (UniProt O00330) was inactive: 0.092; that for PANK4 (UniProt Q9NVE7) was inactive: 0.089; that for PDSS1 (UniProt Q5T2R2) was inactive: 0.063.
On the same count and under the same terms, with PDLIM1 (UniProt O00151) the figure was inactive: 0; with PDLIM4 (UniProt P50479), inactive: 0.026; with PAK2 (UniProt Q13177), inactive: 0.061.
On the same count and under the same terms, the value for PACSIN2 (UniProt Q9UNF0) was inactive: -0.186; that for PDXDC1 (UniProt Q6P996) was inactive: -0.069.
For PASK (UniProt Q96RG2), the log2 fold change is inactive: -0.014.
PARD6B (UniProt Q9BYG5): the log2 fold change was inactive: 0.137.
As to PEBP1 (UniProt P30086), the log2 fold change is inactive: 0.057.
The same measure, in the same setting: the value for PCYOX1 (UniProt Q9UHG3) was inactive: 0.03; that for PDXP (UniProt Q96GD0) was inactive: 0.04; that for PER3 isoform 2 (UniProt P56645) was inactive: 0.08.
Consider PEX1 (UniProt O43933), for which the log2 fold change was inactive: 0.038.
On the same count and under the same terms, the value for PARK7 (UniProt Q99497) was inactive: 0.01; that for PAK1IP1 (UniProt Q9NWT1) was inactive: 0.073; that for PES1 (UniProt O00541) was inactive: 0.249.
For the target PDRG1 (UniProt Q9NUG6), the log2 fold change is inactive: -0.06.
With PDXK (UniProt O00764), the log2 fold change is inactive: 0.007.
On the same count and under the same terms, with PABPC4 isoform 3 (UniProt Q13310) the figure was inactive: -0.011; with PCMT1 isoform 2 (UniProt P22061), inactive: 0.001.
Consider PEPD (UniProt P12955), for which the log2 fold change is inactive: 0.032.
Still for that read-out and setting: with PDCD10 (UniProt Q9BUL8) the figure was inactive: -0.163; with PAPOLA (UniProt P51003), inactive: -0.011.
As for PARVB (UniProt Q9HBI1), the log2 fold change is inactive: -0.096.
The same measure, in the same setting: the value for PANX1 (UniProt Q96RD7) was inactive: 0.084; that for PAFAH1B1 (UniProt P43034) was inactive: 0.032; that for PDIA3 (UniProt P30101) was inactive: 0.005.
Still for that read-out and setting: the value for PDHB (UniProt P11177) was inactive: -0.047; that for PAIP1 (UniProt Q9H074) was inactive: -0.039.
Same read-out and setting: the value for PDCL (UniProt Q13371) was inactive: 0.02.

Compound in a further assay: C[C@@H]1COCCN1C2=NC(=NC(=C2)C3(CC3)S(=O)(=O)C)C4=C5C=CNC5=CC=C4
The assay is described as above. An outline of the steps: as §1
With PEX12 (UniProt O00623), the log2 fold change was inactive: -0.009.
In the case of PDHX (UniProt O00330), the log2 fold change was inactive: -0.132.
Still for that read-out and setting: the value for PANK4 (UniProt Q9NVE7) was inactive: 0.073.
On the same count and under the same terms, with PDSS1 (UniProt Q5T2R2) the figure was inactive: -0.017; with PDLIM1 (UniProt O00151), inactive: -0.009.
For PDLIM4 (UniProt P50479), the log2 fold change is inactive: 0.001.
PAK2 (UniProt Q13177): the log2 fold change is inactive: 0.044.
PACSIN2 (UniProt Q9UNF0): the log2 fold change was inactive: 0.044.
PDXDC1 (UniProt Q6P996): the log2 fold change is inactive: -0.271.
The same measure, in the same setting: the value for PASK (UniProt Q96RG2) was inactive: 0.024.
On to PARD6B (UniProt Q9BYG5), for which the log2 fold change was inactive: 0.068.
The same measure, in the same setting: with PEBP1 (UniProt P30086) the figure was inactive: -0.028; with PCYOX1 (UniProt Q9UHG3), inactive: 0.001.
On the same count and under the same terms, the value for PDXP (UniProt Q96GD0) was inactive: 0.071; that for PER3 isoform 2 (UniProt P56645) was inactive: -0.004.
Same read-out and setting: with PEX1 (UniProt O43933) the figure was inactive: -0.018; with PARK7 (UniProt Q99497), inactive: 0.044.
As for PAK1IP1 (UniProt Q9NWT1), the log2 fold change is inactive: -0.476.
Same read-out and setting: with PES1 (UniProt O00541) the figure was inactive: -0.145.
On the same count and under the same terms, the value for PDRG1 (UniProt Q9NUG6) was inactive: -0.054; that for PDXK (UniProt O00764) was inactive: -0.019; that for PABPC4 isoform 3 (UniProt Q13310) was inactive: -0.178.
Still for that read-out and setting: with PCMT1 isoform 2 (UniProt P22061) the figure was inactive: 0.08.
For the target PEPD (UniProt P12955), the log2 fold change is inactive: 0.006.
The same measure, in the same setting: the value for PDCD10 (UniProt Q9BUL8) was inactive: 0.003.
Same read-out and setting: with PAPOLA (UniProt P51003) the figure was inactive: 0.077.
For PARVB (UniProt Q9HBI1), the log2 fold change is inactive: 0.086.
Turning to PANX1 (UniProt Q96RD7), the log2 fold change is inactive: 0.084.
Consider PAFAH1B1 (UniProt P43034), for which the log2 fold change is inactive: 0.026.
The same measure, in the same setting: with PDIA3 (UniProt P30101) the figure was inactive: -0.124.
Same read-out and setting: with PDHB (UniProt P11177) the figure was inactive: -0.129; with PAIP1 (UniProt Q9H074), inactive: -0.013; with PDCL (UniProt Q13371), inactive: -0.193.
